# Assay results taken from the supplement of paper PMC4604168 (melanoma cell lines).
# The other results are listed elsewhere or left out. Repeats are few or missing, and single values can be far off.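 Imaging used 1,536-well plates; nuclei positive for cleaved PARP by antibody were divided by total DNA-stained nuclei to yield the apoptosis fraction. Doses for screening kept most cells viable, and cell lines differ markedly in resting and induced cleaved-PARP levels.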
# System: WM1745
# Assay: cleaved PARP positive nuclei fraction relative to DMSO control; melanoma cells; higher = more apoptosis
# Conditions: library dose: low library concentration; 72 h
row,SMILES,cleaved PARP positive nuclei fraction
1,"CC(=O)O[C@@]12CO[C@@H]1C[C@H](O)[C@@]1(C)C(=O)[C@H](O)C3=C(C)[C@@H](OC(=O)[C@H](O)[C@@H](NC(=O)OC(C)(C)C)c4ccccc4)C[C@@](O)([C@@H](OC(=O)c4ccccc4)[C@H]21)C3(C)C [Docetaxel] + C[C@]1(c2nc3c(C(N)=O)cccc3[nH]2)CCCN1 [Veliparib] (first compound 0.0001 µM, partner dose 1.4 µM)",176%
2,"CCN(CC)CCNC(=O)c1c(C)[nH]c(/C=C2\C(=O)Nc3ccc(F)cc32)c1C [sunitinib] + OCc1c[nH]c2ccccc12 [Indole-3-carbinol] (first compound 0.4 µM, partner dose 0.8 µM)",132%
3,"C[C@]1(O)C[C@@H](c2nc(-c3ccc4ccc(-c5ccccc5)nc4c3)c3c(N)nccn32)C1 + CCCS(=O)(=O)Nc1ccc(F)c(C(=O)c2c[nH]c3ncc(Cl)cc23)c1F [PLX4720] (first compound 0.4 µM, partner dose 0.08 µM)",134%
4,"Cn1cnc2c(F)c(Nc3ccc(Br)cc3Cl)c(C(=O)NOCCO)cc21 [selumetinib] + C#Cc1cccc(Nc2ncnc3cc(OCCOC)c(OCCOC)cc23)c1 [erlotinib] (first compound 0.015 µM, partner dose 0.8 µM)",683%
5,"Cn1sc(=O)n(Cc2ccccc2)c1=O + OCc1c[nH]c2ccccc12 [Indole-3-carbinol] (first compound 0.4 µM, partner dose 0.8 µM)",93.2%
6,"Cn1cnc2c(F)c(Nc3ccc(Br)cc3Cl)c(C(=O)NOCCO)cc21 [selumetinib] + C[C@@H](Oc1cc(-c2cnn(C3CCNCC3)c2)cnc1N)c1c(Cl)ccc(F)c1Cl [Crizotinib] (first compound 0.015 µM, partner dose 0.2 µM)",112%
7,"NC(=O)c1ccc(N(C(N)=O)c2c(F)cccc2F)nc1-c1ccc(F)cc1F + Clc1ccc(Nc2nnc(Cc3ccncc3)c3ccccc23)cc1 [vatalanib] (first compound 0.4 µM, partner dose 2 µM)",85.3%
8,"Cn1sc(=O)n(Cc2ccccc2)c1=O + Clc1ccc(Nc2nnc(Cc3ccncc3)c3ccccc23)cc1 [vatalanib] (first compound 0.4 µM, partner dose 2 µM)",94.3%
9,"COc1ccc(C2=N[C@@H](c3ccc(Cl)cc3)[C@@H](c3ccc(Cl)cc3)N2C(=O)N2CCNC(=O)C2)c(OC(C)C)c1 [Nutlin-3] + CC(=O)c1c(C)c2cnc(Nc3ccc(N4CCNCC4)cn3)nc2n(C2CCCC2)c1=O [palbociclib] (first compound 0.1 µM, partner dose 0.04 µM)",130%
10,"COc1ccc(C2=N[C@@H](c3ccc(Cl)cc3)[C@@H](c3ccc(Cl)cc3)N2C(=O)N2CCNC(=O)C2)c(OC(C)C)c1 [Nutlin-3] + Cn1c(=O)n(-c2ccc(C(C)(C)C#N)cc2)c2c3cc(-c4cnc5ccccc5c4)ccc3ncc21 [NVP-BEZ235] (first compound 0.1 µM, partner dose 0.004 µM)",89.7%
11,"NC(=O)c1ccc(N(C(N)=O)c2c(F)cccc2F)nc1-c1ccc(F)cc1F + C=C(c1ccc(C(=O)O)cc1)c1cc2c(cc1C)C(C)(C)CCC2(C)C [Bexarotene] (first compound 0.4 µM, partner dose 2 µM)",98.6%
12,"Cn1cnc2c(F)c(Nc3ccc(Br)cc3Cl)c(C(=O)NOCCO)cc21 [selumetinib] + Cn1nnc2c(C(N)=O)ncn2c1=O [temozolomide] (first compound 0.015 µM, partner dose 2 µM)",86.6%
13,"C[C@]1(O)C[C@@H](c2nc(-c3ccc4ccc(-c5ccccc5)nc4c3)c3c(N)nccn32)C1 + CS(=O)(=O)c1ccc(C(=O)Nc2ccc(Cl)c(-c3ccccn3)c2)c(Cl)c1 [vismodegib] (first compound 0.4 µM, partner dose 1 µM)",237%
14,"C[C@]1(O)C[C@@H](c2nc(-c3ccc4ccc(-c5ccccc5)nc4c3)c3c(N)nccn32)C1 + Cc1cc(Nc2cc(N3CCN(C)CC3)nc(/C=C/c3ccccc3)n2)n[nH]1 [ENMD2076] (first compound 0.4 µM, partner dose 0.04 µM)",118%
15,"Cn1cnc2c(F)c(Nc3ccc(Br)cc3Cl)c(C(=O)NOCCO)cc21 [selumetinib] + O=C(O)[C@@H]1[O][Sb](=[O])([O][Sb]2(=[O])[O][C@H]([C@H](O)CO)[C@H](O)[C@H](C(=O)O)[O]2)[O][C@H]([C@H](O)CO)[C@@H]1O [stibogluconate] (first compound 0.015 µM, partner dose 2 µM)",104%
16,"Cn1cnc2c(F)c(Nc3ccc(Br)cc3Cl)c(C(=O)NOCCO)cc21 [selumetinib] + CCN(CC)CCNC(=O)c1c(C)[nH]c(/C=C2\C(=O)Nc3ccc(F)cc32)c1C [sunitinib] (first compound 0.015 µM, partner dose 0.4 µM)",122%
17,"Cn1sc(=O)n(Cc2ccccc2)c1=O + CN(c1ncccc1CNc1nc(Nc2ccc3c(c2)CC(=O)N3)ncc1C(F)(F)F)S(C)(=O)=O [PF562271] (first compound 0.4 µM, partner dose 0.08 µM)",107%
18,"CC1(C)CCC(c2ccc(Cl)cc2)=C(CN2CCN(c3ccc(C(=O)NS(=O)(=O)c4ccc(N[C@H](CCN5CCOCC5)CSc5ccccc5)c(S(=O)(=O)C(F)(F)F)c4)cc3)CC2)C1 + OCc1c[nH]c2ccccc12 [Indole-3-carbinol] (first compound 0.4 µM, partner dose 0.8 µM)",841%
19,"CC(=O)O[C@@]12CO[C@@H]1C[C@H](O)[C@@]1(C)C(=O)[C@H](O)C3=C(C)[C@@H](OC(=O)[C@H](O)[C@@H](NC(=O)OC(C)(C)C)c4ccccc4)C[C@@](O)([C@@H](OC(=O)c4ccccc4)[C@H]21)C3(C)C [Docetaxel] + NC1(c2ccc(-c3nc4ccn5c(=O)[nH]nc5c4cc3-c3ccccc3)cc2)CCC1 [MK2206] (first compound 0.0001 µM, partner dose 0.4 µM)",176%
20,"C[C@]1(O)C[C@@H](c2nc(-c3ccc4ccc(-c5ccccc5)nc4c3)c3c(N)nccn32)C1 + Nc1cccc2c1CN(C1CCC(=O)NC1=O)C2=O [lenalidomide] (first compound 0.4 µM, partner dose 1 µM)",117%
21,"C[C@@H](N)c1ccc(C(=O)Nc2ccnc3[nH]ccc23)cc1 + C=CCNC1=C2C[C@@H](C)C[C@H](OC)[C@H](O)[C@@H](C)/C=C(\C)[C@H](OC(N)=O)[C@@H](OC)/C=C\C=C(/C)C(=O)NC(=CC1=O)C2=O [Tanespimycin] (first compound 0.4 µM, partner dose 0.002 µM)",121%

# A second format for part of the listing above.
row | SMILES | cleaved PARP positive nuclei fraction
7 | NC(=O)c1ccc(N(C(N)=O)c2c(F)cccc2F)nc1-c1ccc(F)cc1F + Clc1ccc(Nc2nnc(Cc3ccncc3)c3ccccc23)cc1 [vatalanib] (first compound 0.4 µM, partner dose 2 µM) | 85.3%
12 | Cn1cnc2c(F)c(Nc3ccc(Br)cc3Cl)c(C(=O)NOCCO)cc21 [selumetinib] + Cn1nnc2c(C(N)=O)ncn2c1=O [temozolomide] (first compound 0.015 µM, partner dose 2 µM) | 86.6%
